From patent publication US8198302B2 (OXiGENE, Inc., priority 2004, dated 2012)
At least one structure is not confirmed: it was looked up by name or label, or the drawing left a doubt.

Experiments:
[1] = tested on: Purified tubulin; assay: Inhibition of tubulin polymerization (turbidimetric, 350 nm); format: biochemical; details: purified tubulin 1 mg/ml, read-out: Tubulin Binding (uM IC50)
Procedure: The method of Verdier-Pinard (1998, Molec. Pharmacol. 53, 62-76) was used to assay catechol compounds for inhibition of tubulin polymerization. Tubulin polymerization was followed turbidimetrically at 350 nm on an Agilent 8453 spectrophotometer equipped with a kinetics program, a jacketed cell holder, and two microprocessor-controlled water baths. Purified tubulin (1 mg/ml) was induced to polymerize in a monosodium glutamate/GTP solution by a jump in temperature. Absorbance was recorded every 10 seconds and the data was analyzed by a GraphPad Prism program.

[2] = target: T1, Horseradish peroxidase (HRP) (Armoracia rusticana, UniProt P00433); assay: Peroxidase-mediated activation of catechols (HPLC loss of peak area); format: biochemical
T1 construct: purchased Sigma P6782
T1 sequence (P00433 31-338 limits assumed): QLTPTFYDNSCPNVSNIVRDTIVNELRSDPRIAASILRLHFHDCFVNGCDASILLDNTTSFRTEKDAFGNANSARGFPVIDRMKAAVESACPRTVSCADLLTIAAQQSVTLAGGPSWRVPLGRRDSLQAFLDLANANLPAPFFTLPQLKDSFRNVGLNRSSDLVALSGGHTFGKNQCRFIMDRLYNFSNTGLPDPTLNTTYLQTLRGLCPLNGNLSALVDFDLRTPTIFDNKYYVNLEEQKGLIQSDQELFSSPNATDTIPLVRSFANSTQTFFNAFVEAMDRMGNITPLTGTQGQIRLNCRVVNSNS
Procedure: Methods: catechols were dissolved in DMSO immediately prior to assay (10 mM). HRP (Sigma, P6782, 1000 units/mg), was dissolved in phosphate buffered saline (PBS) at a concentration of 40 ug/ml. Fresh hydrogen peroxide (50 mM) was prepared from a 30% w/w solution (Sigma, H1009). Incubations were carried out in a water bath maintained at 37° C. Exact volumes varied depending on the catechol, but typically they comprised 1.92 ml PBS, 20 μl DMSO, 20 μl hydrogen peroxide and 20 μl drug in a 4 ml amber glass vial. Prior to addition of the drug, the vial was pre-incubated for 10 min. The reaction was initiated by the addition of 20 μl HRP. Samples (100 μl) were then removed at intervals, added to 100 μl acetonitrile and placed on ice. At the end of the incubation, samples were centrifuged (12000 g, 1 min) to remove precipitated protein and the supernatants placed in polypropylene hplc vials for analysis. Control incubations containing no HRP were carried out in the same way.
HPLC was performed using a Waters 2695 Separations Module with a sample compartment maintained at 10° C., and a Waters 2996 Photodiode Array Detector. The column was an ACE C18, 3 μm particle size, 125×3 mm (Hichrom) maintained at 30° C. […] Data was analysed using Waters Millennium software. […]

In the case of `COc1ccc(/C=C\c2cc(OC)c(OC)c(OC)c2)c(O)c1O` [CA1, Combretastatin A-1], the IC50 [1] is reported as 1.9 µM, the “Relative Activation (% Control)” value ([2]; relative to non-catechol control = 100) is reported as 0.373 % Control and the Slope/Hrp ([2]; slope divided by HRP concentration (ug/ml): corrected disappearance) is reported as −99498.
